Source: patent publication JP2020027089A
No constants are given. Whether binding was seen depends on the method and setting. Some results given as binding are weak or reduced against the parent protein; the word gives no strength.

Molecular target: T1, ヒトMK(ピキア酵母GS115で発現・精製した組換えヒトミッドカイン、免疫原) (human) (UniProt P21741)
T1 sequence (looked up): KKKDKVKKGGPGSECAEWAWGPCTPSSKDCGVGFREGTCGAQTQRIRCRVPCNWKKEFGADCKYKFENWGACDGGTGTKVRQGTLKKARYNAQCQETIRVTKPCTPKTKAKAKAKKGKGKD
Assay: ELISA, hybridoma culture supernatant on plate-coated MK antigen

binding: binds
B1: 抗ヒトMKモノクローナル抗体#12 (antibody, V domains shown)
VH: QVQLQQPGTELVKPGASVKLSCKASGYTFTSYWMHWVKQRPGHGLDWIGNINPHNGGTNYNEKFNNRATLTVDKSSTTAYMQLSSLTSEDSADYYCVRGGHYDEGYFEYWGQGTTLTVSS
VL: DIQMTQSPASLSASVGETVTITCRASGNIHNYLAWQQKQGKSPQFLVYNAKTLADGVPSRFSGSGSGTQFSLKINSLQPEDFGNYYCQHFWSTPFTFGSGTKLEIK
